Experimental data as given in PMC5381120.
Results are given in words; binding and its absence hold for the method and conditions named. Binding seen in cells or lysates may run through a third protein. Some binding calls cover weakened binding; strength is not graded here.

Target: T1, FBXL2 (mouse (endogenous in RAW 264.7)) (UniProt Q8BH16)
T1 sequence: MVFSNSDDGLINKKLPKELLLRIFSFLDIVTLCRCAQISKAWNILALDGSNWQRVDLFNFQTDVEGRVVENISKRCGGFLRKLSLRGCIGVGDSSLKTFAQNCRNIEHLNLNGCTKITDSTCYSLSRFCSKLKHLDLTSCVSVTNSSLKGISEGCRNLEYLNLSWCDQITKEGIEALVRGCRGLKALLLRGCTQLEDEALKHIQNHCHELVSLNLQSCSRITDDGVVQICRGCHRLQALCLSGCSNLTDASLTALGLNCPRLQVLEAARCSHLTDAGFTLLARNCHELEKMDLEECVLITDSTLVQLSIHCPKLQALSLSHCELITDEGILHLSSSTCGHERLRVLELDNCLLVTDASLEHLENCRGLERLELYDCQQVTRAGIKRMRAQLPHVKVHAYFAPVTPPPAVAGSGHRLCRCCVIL
Test: co-IP; FBXL2 antibody and protein A/G beads added to 1 mg RAW 264.7 cell lysate, 6 h, washed 5 times, blotted with anti-FBXL2 and anti-TRAF6; cells of the control, polyethylene debris and LIPUS+debris groups

B1: TRAF6 (protein, UniProt P70196 1-530)
chain: MSLLNCENSCGSSQSSSDCCAAMAASCSAAVKDDSVSGSASTGNLSSSFMEEIQGYDVEFDPPLESKYECPICLMALREAVQTPCGHRFCKACIIKSIRDAGHKCPVDNEILLENQLFPDNFAKREILSLTVKCPNKGCLQKMELRHLEDHQVHCEFALVNCPQCQRPFQKCQVNTHIIEDCPRRQVSCVNCAVSMAYEEKEIHDQSCPLANIICEYCGTILIREQMPNHYDLDCPTAPIPCTFSVFGCHEKMQRNHLARHLQENTQLHMRLLAQAVHNVNLALRPCDAASPSRGCRPEDPNYEETIKQLESRLVRQDHQIRELTAKMETQSMYVGELKRTIRTLEDKVAEMEAQQCNGIYIWKIGNFGMHLKSQEEERPVVIHSPGFYTGRPGYKLCMRLHLQLPTAQRCANYISLFVHTMQGEYDSHLPWPFQGTIRLTILDQSEALIRQNHEEVMDAKPELLAFQRPTIPRNPKGFGYVTFMHLEALRQGTFIKDDTLLVRCEVSTRFDMGGLRKEGFQPRSTDAGV
binding: binds
